Assay results from the supplement of paper PMC10849652.
This is one part of the list.

Protein sequences, listed by entry. Tags and fused reporters are not part of them. Lines headed by an entry give the natural chain unless they say otherwise; changes in a name come on top.
UniProt O43805: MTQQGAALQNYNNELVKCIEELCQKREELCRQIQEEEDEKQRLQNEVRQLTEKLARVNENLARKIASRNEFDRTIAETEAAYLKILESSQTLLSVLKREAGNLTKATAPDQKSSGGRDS
UniProt Q8WXA9: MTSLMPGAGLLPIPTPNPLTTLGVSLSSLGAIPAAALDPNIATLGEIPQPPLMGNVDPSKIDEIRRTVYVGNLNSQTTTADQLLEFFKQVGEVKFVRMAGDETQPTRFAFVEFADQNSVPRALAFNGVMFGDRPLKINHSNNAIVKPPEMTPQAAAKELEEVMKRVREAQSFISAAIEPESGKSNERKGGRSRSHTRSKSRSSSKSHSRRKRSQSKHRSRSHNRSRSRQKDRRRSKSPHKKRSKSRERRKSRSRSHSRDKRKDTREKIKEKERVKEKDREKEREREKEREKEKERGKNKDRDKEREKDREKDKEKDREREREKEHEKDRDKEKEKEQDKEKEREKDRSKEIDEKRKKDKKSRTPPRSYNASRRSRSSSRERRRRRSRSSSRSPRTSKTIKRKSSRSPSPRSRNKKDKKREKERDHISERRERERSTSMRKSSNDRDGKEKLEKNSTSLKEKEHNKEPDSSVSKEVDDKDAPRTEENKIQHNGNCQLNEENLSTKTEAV
UniProt O00506, whole entry, looked up: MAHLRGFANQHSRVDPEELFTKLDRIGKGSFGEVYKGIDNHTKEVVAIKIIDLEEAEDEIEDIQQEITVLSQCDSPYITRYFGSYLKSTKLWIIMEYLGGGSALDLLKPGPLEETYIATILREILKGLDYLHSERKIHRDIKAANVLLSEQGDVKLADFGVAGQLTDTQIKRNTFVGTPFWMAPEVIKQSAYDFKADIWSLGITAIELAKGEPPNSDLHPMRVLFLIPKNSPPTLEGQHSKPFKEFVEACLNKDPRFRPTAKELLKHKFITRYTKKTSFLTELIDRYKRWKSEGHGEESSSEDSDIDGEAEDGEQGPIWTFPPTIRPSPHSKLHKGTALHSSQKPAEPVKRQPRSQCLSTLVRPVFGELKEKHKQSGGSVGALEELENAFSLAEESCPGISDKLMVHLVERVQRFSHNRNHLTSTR
UniProt O15269: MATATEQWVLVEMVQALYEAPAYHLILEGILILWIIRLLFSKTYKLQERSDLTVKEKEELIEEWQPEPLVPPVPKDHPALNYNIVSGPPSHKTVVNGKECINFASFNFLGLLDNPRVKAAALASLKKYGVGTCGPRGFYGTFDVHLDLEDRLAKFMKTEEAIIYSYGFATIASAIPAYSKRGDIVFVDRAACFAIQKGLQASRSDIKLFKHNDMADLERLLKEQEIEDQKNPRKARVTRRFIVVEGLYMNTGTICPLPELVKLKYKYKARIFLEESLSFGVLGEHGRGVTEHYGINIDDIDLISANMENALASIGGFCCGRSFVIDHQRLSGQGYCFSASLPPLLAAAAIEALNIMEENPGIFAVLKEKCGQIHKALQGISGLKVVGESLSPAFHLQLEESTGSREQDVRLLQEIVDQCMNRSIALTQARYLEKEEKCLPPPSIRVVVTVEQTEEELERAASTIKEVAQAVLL
UniProt O94768: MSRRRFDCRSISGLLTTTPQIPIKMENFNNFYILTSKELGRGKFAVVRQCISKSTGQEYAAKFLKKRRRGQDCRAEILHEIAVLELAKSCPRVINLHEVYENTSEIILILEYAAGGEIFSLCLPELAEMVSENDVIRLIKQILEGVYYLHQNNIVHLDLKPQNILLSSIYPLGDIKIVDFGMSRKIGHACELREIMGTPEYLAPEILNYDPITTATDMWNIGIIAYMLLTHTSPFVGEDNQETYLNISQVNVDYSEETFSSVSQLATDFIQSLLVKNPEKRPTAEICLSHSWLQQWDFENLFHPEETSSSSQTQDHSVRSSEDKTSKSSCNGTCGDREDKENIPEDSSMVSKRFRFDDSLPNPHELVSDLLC
UniProt Q15831: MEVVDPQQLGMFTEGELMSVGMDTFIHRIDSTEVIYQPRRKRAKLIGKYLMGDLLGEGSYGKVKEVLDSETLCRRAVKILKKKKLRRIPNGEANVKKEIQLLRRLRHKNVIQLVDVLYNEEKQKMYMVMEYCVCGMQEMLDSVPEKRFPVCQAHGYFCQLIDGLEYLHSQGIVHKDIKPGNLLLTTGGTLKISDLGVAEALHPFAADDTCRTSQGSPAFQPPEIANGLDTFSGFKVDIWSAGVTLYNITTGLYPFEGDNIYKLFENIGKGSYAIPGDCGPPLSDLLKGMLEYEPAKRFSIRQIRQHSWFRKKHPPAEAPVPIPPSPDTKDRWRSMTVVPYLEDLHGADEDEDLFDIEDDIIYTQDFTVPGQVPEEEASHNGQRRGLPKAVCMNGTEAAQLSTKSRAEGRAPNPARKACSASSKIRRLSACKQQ
UniProt Q04837: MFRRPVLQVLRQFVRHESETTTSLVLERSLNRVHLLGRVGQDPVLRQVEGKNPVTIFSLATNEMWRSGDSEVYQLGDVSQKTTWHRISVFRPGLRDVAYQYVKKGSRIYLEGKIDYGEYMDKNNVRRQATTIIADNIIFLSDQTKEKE
UniProt Q9NSC7: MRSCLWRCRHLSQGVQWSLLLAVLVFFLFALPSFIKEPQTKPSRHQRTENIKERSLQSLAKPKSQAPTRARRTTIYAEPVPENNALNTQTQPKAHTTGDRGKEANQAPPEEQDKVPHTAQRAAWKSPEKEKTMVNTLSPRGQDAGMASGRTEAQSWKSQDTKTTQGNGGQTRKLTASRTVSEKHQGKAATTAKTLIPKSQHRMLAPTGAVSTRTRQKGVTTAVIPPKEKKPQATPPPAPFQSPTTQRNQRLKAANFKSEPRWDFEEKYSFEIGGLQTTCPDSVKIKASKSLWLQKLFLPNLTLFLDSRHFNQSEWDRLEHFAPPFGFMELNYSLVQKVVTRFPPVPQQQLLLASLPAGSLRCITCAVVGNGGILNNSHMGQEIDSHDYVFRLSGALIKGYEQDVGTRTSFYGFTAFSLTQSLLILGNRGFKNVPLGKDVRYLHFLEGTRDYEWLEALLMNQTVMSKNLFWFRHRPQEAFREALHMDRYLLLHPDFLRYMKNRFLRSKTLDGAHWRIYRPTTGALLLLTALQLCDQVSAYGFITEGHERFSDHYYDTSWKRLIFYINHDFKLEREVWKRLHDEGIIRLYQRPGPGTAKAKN
UniProt Q8IYB3: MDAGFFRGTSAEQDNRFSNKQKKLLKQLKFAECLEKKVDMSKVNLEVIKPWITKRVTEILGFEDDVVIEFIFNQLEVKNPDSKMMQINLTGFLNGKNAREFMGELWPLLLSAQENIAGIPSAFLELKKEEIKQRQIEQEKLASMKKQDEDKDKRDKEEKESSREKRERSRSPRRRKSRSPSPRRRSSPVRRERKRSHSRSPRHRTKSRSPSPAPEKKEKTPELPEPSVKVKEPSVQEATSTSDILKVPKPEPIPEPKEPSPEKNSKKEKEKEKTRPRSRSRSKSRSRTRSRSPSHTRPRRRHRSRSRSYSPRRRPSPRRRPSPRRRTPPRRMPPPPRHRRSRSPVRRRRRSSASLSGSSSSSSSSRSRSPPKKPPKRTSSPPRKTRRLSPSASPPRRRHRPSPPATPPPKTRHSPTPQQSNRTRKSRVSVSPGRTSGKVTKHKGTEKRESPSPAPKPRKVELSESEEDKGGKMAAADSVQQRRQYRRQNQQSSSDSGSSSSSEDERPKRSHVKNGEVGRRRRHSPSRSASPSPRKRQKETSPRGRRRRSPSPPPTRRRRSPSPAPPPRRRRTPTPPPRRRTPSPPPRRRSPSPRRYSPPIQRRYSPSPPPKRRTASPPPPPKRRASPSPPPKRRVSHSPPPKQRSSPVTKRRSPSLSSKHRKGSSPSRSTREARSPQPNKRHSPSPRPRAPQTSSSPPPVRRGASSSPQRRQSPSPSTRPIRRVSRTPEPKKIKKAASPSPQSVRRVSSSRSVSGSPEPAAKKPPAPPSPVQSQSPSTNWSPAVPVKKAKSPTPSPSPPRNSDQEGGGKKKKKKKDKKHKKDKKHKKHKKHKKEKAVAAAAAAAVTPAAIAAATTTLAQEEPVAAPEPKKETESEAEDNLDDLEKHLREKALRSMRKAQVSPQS
UniProt Q07955, whole entry, looked up: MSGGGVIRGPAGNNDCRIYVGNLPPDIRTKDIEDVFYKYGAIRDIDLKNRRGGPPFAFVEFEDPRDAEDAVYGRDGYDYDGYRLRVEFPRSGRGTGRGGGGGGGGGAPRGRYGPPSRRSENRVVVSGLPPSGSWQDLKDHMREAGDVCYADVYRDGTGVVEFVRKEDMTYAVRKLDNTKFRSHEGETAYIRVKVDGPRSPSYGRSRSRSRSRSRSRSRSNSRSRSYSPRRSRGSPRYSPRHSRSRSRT
UniProt P36956: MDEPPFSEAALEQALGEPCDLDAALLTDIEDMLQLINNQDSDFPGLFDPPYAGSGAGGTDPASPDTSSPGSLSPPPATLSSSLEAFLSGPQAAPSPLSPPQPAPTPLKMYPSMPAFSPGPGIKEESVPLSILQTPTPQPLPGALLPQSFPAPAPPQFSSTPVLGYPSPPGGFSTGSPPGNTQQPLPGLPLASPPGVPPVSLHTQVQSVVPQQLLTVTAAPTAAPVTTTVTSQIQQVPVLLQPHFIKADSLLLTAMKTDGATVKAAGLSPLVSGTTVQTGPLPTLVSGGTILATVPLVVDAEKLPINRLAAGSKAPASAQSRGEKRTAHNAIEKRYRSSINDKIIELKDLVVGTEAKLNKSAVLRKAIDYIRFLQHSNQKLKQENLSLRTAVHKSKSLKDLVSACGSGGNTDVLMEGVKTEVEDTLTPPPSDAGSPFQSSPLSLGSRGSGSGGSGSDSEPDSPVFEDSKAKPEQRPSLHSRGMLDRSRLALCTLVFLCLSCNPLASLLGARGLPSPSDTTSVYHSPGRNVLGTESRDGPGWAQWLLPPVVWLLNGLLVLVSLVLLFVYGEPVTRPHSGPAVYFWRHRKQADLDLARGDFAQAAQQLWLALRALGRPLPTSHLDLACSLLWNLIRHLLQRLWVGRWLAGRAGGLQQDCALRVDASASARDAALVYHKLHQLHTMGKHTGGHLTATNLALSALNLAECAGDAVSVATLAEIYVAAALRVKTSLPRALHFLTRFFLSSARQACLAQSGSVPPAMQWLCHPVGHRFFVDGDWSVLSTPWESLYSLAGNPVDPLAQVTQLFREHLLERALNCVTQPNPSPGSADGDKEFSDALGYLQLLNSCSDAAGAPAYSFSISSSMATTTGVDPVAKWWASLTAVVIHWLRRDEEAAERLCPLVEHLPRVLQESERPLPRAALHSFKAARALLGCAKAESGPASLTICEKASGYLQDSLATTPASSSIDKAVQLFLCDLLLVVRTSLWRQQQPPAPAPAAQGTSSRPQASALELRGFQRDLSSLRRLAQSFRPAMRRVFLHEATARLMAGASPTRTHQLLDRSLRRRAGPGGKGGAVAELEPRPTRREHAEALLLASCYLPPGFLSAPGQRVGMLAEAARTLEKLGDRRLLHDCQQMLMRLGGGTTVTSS
UniProt Q9C004: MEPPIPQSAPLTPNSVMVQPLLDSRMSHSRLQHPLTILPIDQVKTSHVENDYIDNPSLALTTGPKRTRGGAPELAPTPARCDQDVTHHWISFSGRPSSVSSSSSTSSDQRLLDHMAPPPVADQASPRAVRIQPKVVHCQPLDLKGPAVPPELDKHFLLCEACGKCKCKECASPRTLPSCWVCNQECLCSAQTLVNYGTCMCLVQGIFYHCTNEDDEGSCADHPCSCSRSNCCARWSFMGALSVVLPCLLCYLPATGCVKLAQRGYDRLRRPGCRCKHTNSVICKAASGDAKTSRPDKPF
UniProt P42224: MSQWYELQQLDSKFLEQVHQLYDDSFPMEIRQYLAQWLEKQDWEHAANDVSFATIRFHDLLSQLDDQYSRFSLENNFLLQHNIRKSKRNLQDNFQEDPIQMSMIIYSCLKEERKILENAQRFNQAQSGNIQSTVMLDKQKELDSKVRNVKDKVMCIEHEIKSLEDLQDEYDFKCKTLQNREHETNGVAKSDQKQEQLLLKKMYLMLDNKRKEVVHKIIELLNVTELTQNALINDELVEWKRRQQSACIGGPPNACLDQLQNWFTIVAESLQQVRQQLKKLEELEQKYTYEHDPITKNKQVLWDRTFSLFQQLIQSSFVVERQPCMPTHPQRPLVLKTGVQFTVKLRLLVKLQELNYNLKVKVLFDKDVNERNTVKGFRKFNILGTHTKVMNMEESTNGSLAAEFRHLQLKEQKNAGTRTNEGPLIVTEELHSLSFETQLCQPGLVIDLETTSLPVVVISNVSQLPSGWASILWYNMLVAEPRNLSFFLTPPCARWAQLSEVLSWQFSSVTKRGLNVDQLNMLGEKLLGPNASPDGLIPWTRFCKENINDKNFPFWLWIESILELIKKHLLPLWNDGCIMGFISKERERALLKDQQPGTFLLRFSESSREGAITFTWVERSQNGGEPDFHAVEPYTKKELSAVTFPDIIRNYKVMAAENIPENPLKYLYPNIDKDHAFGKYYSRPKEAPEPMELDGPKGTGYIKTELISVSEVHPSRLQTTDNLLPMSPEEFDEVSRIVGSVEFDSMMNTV

Assays:
Assay in all cases: log2 fold change, soluble protein after heating vs DMSO (PISA); higher = thermal stabilisation; K562 cells, 10 uM, 30 min; active = over 0.2 and 3.5 SD of the protein, either way, in both replicates (recomputed)
[1] = compound: C1=CC=C(C=C1)[C@H](COC2=CC3=C(C=C2)NC(=O)N3)NC(=O)C4=CC=CN(C4=O)CC5=CC(=C(C=C5)F)F
Method in brief: (§1)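 K562 cells at 2×10^6 cells/mL were given 10 μM compound for 30 min. Aliquots then went through 3 min of heating across 48°C-58°C, were pooled, and were extracted in PBS with 0.5% NP-40 at 4°C, and the supernatant after 21,000xg for 90 min was quantified by TMTpro 16plex LC-MS/MS with channel sums equalised. Thermal stability relative to control samples, from duplicates, is given as log2 fold change.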

[2] = compound: CC1=C(SC2=C1C(=N[C@H](C3=NN=C(N32)C)CC(=O)N)C4=CC=C(C=C4)Cl)C
Method in brief: as §1

[3] = compound: CC1=C2C(=CC=C1)N=C(N(C2=O)C3=CC=CC=C3C)CN4C=NC5=C(N=CN=C54)N
Method in brief: as §1

[4] = compound: Cc1sc2c(c1C)C(c1ccc(Cl)cc1)=N[C@@H](CC(=O)OC(C)(C)C)c1nnc(C)n1-2
Method in brief: as §1

[5] = compound: c1ccc([C@@H]2C[C@H]2NC2CCNCC2)cc1
Method in brief: as §1

Measured: log2 fold change

SSNA1 (UniProt O43805)
inactive: [1] 0.035 | [2] 0.071 | [3] 0.064 | [4] -0.021 | [5] 0

SREK1 isoform 2 (UniProt Q8WXA9)
inactive: [1] 0.05 | [2] -0.06 | [3] -0.039 | [4] -0.037 | [5] 0.026

SPNS1 (UniProt Q9H2V7)
inactive: [1] 0.005 | [2] -0.024 | [3] 0.063 | [4] -0.026 | [5] 0.035

STK25 (UniProt O00506)
inactive: [1] -0.022 | [2] 0.111 | [3] 0.015 | [4] -0.019 | [5] -0.016

STAT6 (UniProt P42226)
inactive: [1] -0.02 | [2] -0.019 | [3] 0.198 | [4] 0.009 | [5] -0.015

SPTLC1 (UniProt O15269)
inactive: [1] -0.002 | [2] 0.03 | [3] 0.066 | [4] -0.107 | [5] -0.02

STK17B (UniProt O94768)
inactive: [1] 0.043

SPG11 (UniProt Q96JI7)
inactive: [1] 0.095 | [2] 0.05 | [3] 0.444 | [4] 0.24 | [5] 0.083

SPICE1 (UniProt Q8N0Z3)
inactive: [1] 0.096

STIM1 (UniProt Q13586)
inactive: [1] -0.051 | [2] 0.044 | [3] 0.008 | [4] -0.014 | [5] -0.019

STK11 (UniProt Q15831)
inactive: [1] 0.007 | [2] 0.039 | [3] 0.051 | [4] 0.017 | [5] 0.07

SSBP1 (UniProt Q04837)
inactive: [1] 0.05 | [2] -0.063 | [3] -0.009 | [4] -0.019 | [5] 0.023

SSBP3 (UniProt Q9BWW4)
inactive: [1] 0.052 | [2] 0.048 | [3] 0.06 | [4] -0.14 | [5] 0.004

ST6GALNAC1 (UniProt Q9NSC7)
inactive: [1] 0.049 | [2] -0.051 | [3] -0.039 | [4] 0.039 | [5] -0.027

Looked up one by one from the list above, 2 records:
SREK1 isoform 2 (UniProt Q8WXA9)
inactive: [1] 0.05 | [2] -0.06 | [3] -0.039 | [4] -0.037 | [5] 0.026

STK11 (UniProt Q15831)
inactive: [1] 0.007 | [2] 0.039 | [3] 0.051 | [4] 0.017 | [5] 0.07

Additional results:

SRRM1 (UniProt Q8IYB3)
inactive: [1] 0.062 | [2] -0.056 | [3] -0.091 | [4] 0.202 | [5] 0.061

SPART (UniProt Q8N0X7)
inactive: [1] -0.028 | [2] 0.043 | [3] 0.065 | [4] 0.018 | [5] -0.002

SRSF1 (UniProt Q07955)
inactive: [1] 0.071 | [2] -0.149 | [3] -0.244 | [4] 0.127 | [5] 0.079

STAT3 (UniProt P40763)
inactive: [1] -0.033 | [2] 0.034 | [3] 0.1 | [4] 0.024 | [5] -0.006

SPCS3 (UniProt P61009)
inactive: [1] -0.032 | [2] -0.015 | [3] -0.009 | [4] 0.008 | [5] -0.009

SPN (UniProt P16150)
inactive: [1] 0.027 | [2] 0.005 | [3] -0.007 | [4] 0.016 | [5] 0.022

SRSF6 (UniProt Q13247)
inactive: [1] -0.071 | [2] -0.453 | [3] -0.109 | [4] 0.217 | [5] 0.015

SREBF1 isoform 4 (UniProt P36956)
inactive: [1] 0.026

SPRY4 (UniProt Q9C004)
inactive: [1] -0.047 | [2] -0.002 | [3] 0.015 | [4] -0.008 | [5] 0.017

STARD3NL (UniProt O95772)
inactive: [1] 0.027 | [2] 0.025 | [3] 0.142 | [4] 0 | [5] 0.039

STAT1 (UniProt P42224)
inactive: [1] 0.041 | [2] -0.092 | [3] 0.107 | [4] 0.202 | [5] 0.004

SPTB isoform 2 (UniProt P11277)
inactive: [1] -0.015 | [2] 0.386 | [3] -0.019 | [4] 0.135 | [5] -0.055
